PubChem BioAssay AID1671195 – Yale University, 2021
This is an unselected part of about 22,000 reagents tested. Of all reagents, about 1,510 (6.9%) were called active. 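Active includes knockdowns raising or lowering LDL uptake; positive z-scores mean more uptake, negative mean less.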 No sequences are given here.

Test: 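Genes whose knockdown alters LDL uptake in liver cancer cells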 (primary screen)
System: human Huh7 hepatoma cells
Reagent: siRNA pool against human genes, 18 nM
Time to read-out: about 2 to 2.5 days of knockdown, then 8 h LDL uptake
Challenge: DiI-labelled LDL at 30 µg/ml for 8 h, in lipoprotein-deficient serum medium
Measured: 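Fluorescent LDL signal imaged in cells, scaled to the plate median, robust z-score for each replicate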
Reading the numbers: robust z-score: higher = more LDL uptake after knockdown
Rule for the call: 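Active when two or more replicates show a robust z-score above 2 or below -2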

gene symbol	robust z-score, replicate 1	robust z-score, replicate 2	robust z-score, replicate 3	Outcome
WDR72	1.61	1.99	2.34	active
MXD3	-1.05	-0.893	-1.15	inactive
OPCML	-1.1	-1.58	-1.24	inactive
PLA2G2A	0.0791	0.349	0.274	inactive
ACTL7B	0.0994	-0.276	-0.593	inactive
MGAT5B	-1.61	-1.59	-1.92	inactive
LY6G5C	-0.774	-0.627	-0.292	inactive
ALDH7A1	1.08	1.27	1.1	inactive
RAB1A	2.18	-0.225	0.161	inactive
DMD	0.179	3.93	0.352	inactive
KLHDC8B	0.572	-0.112	-0.195	inactive
TMEM183AP3	-1.51	-1.37	-1.69	inactive
ZNF567	-0.143	-0.0311	-0.381	inactive
DCP1B	-0.822	-0.783	0.665	inactive
GPATCH2L	-0.0715	0.2	0.273	inactive
SUSD3	-0.979	-1.34	-1.54	inactive
PHB1P3	0.269	-0.579	-0.474	inactive
LOC440817 (retired record)	3.33	2.94	4.45	active
BIN2	-2.46	-2.74	-2.38	active
MRPS31	-0.778	-2.13	-0.0943	inactive
LOXL1	-1.25	-0.778	-1.21	inactive
ACOT2	-0.647	-1.3	-0.293	inactive
SERPINB4	0.141	-0.493	0.579	inactive
LOC389243 (retired record)	-0.232	-0.252	-0.363	inactive
WFS1	-0.478	-1.8	-0.469	inactive
PLPP5	1.16	0.586	0.828	inactive
SIAH1P1	-1.16	0.324	0.00349	inactive
SLAMF8	0.658	-0.336	-0.0476	inactive
UCN2	-0.913	-0.329	-0.47	inactive
ZNF524	-1.07	-0.804	-0.85	inactive
ANPEP	-0.193	0.659	0.286	inactive
DNAI7	-0.0819	1.26	-0.468	inactive
ADCY10P1	-0.168	-0.348	0.0143	inactive
PCDHB5	-0.289	-0.499	-0.0667	inactive
LOC392512 (retired record)	-0.852	-0.233	-0.203	inactive
DAD1	-0.26	-1.35	-0.658	inactive
CTRL	0.188	-0.0809	0.0448	inactive
WDPCP	1.94	2.12	-1.68	active
BLOC1S5	1.61	0.847	1.74	inactive
SUN3	-1.2	-1.24	-1.29	inactive
PPM1D	0.63	0.0726	0.114	inactive
LOC440524 (retired record)	-2.36	-2.48	-2.37	active
NAE1	0.034	-0.971	-1.61	inactive
AXDND1	-0.212	-0.261	-0.234	inactive
CIB4	0.0559	-0.514	1.03	inactive
HDAC1	-0.397	-0.123	-0.912	inactive
C22orf31	-0.098	0.121	-0.825	inactive
NCAM1	-0.476	-0.303	0.987	inactive
TIMM29	-0.75	-1	-1.23	inactive
CRISPLD1	0.57	0.99	0.197	inactive
NFKBIB	-1.42	-1.64	-1.36	inactive
ZNF254	-0.466	-0.285	-0.201	inactive
KIF5B	1.13	0.00399	-0.147	inactive
FIBP	1.56	0.565	2.36	inactive
RNF187	-0.876	-1.9	-0.153	inactive
OR4D2	-0.856	-0.917	-0.291	inactive
EXOC1	1.16	-0.148	0.91	inactive
SLC17A4	-0.906	-0.936	-1.16	inactive
RNF113B	-0.488	-1.71	0.266	inactive
ARMC2	-0.212	0.588	0.88	inactive
LOC388123 (retired record)	1.77	2.52	2.07	active
C1QTNF1	-1.33	0.28	0.149	inactive
ITGB1BP1	-0.135	0.344	-0.172	inactive
NR2C1	-0.072	-1.07	-0.367	inactive
LNP1	0.405	0.0554	0.449	inactive
TNFRSF14	1.02	0.656	0.197	inactive
MND1	-0.933	-1.03	-0.472	inactive
LDAH	-1.02	-1.22	-1.49	inactive

Hits, of those listed so far:
gene symbol	robust z-score, replicate 1	robust z-score, replicate 2	robust z-score, replicate 3	Outcome
WDR72	1.61	1.99	2.34	active
LOC440817 (retired record)	3.33	2.94	4.45	active
BIN2	-2.46	-2.74	-2.38	active
WDPCP	1.94	2.12	-1.68	active
LOC440524 (retired record)	-2.36	-2.48	-2.37	active
LOC388123 (retired record)	1.77	2.52	2.07	active
